# Source: patent US7598397B2, “Sulfonamide peri-substituted bicyclics for occlusive artery disease” (deCODE genetics ehf, priority 2004, dated 2009)
# The match of structure and compound is tentative.
# Assays:
# [1] = test system: female C57BL/6 mice; assay: pulmonary thromboembolism induced by arachidonic acid (platelet aggregation in vivo); conditions: 100 mg/kg orally, 30 min before arachidonic acid 30 mg/kg i.v.; survival one hour after challenge
# [2] = test system: human platelets; assay: platelet aggregation in vitro, human platelets; conditions: read-out: IC50 (nM) for Test Compounds, agonist Sulprostone (100 nM) and collagen (0.125 ug.mL), Serum % 50
# [3] = test system: rat platelets; assay: platelet aggregation in vitro, rat platelets; conditions: read-out: IC50 (nM) for Test Compounds, agonist Sulprostone (100 nM) and collagen (2.0 ug.mL), Serum % 20
compound,measurement,setting,value
O=C(COc1cccc2[nH]cc(Cc3ccc4ccccc4c3)c12)NS(=O)(=O)c1cc(Cl)c(Cl)s1,No. mice surviving/Total no. of mice evalauted,[1],20/43
same,Survival rate,[1],46%
same,IC50,[2],14.1 nM
same,IC50,[3],78.5 nM
